# The other results are listed elsewhere or left out. These are further read-outs of the screen, such as a control signal, another cell line or another target. No call is given for them. Most of these compounds were active or inconclusive in the main read-out, so they are no random draw.
# Experiment: dynein cargo transport inhibitors, GR-EGFP translocation, confirmation, imaging, high-content imaging, GR-EGFP cells (AID 463116)
# Details: 3617.4 GR-EGFP nuclear translocation imaging, dexamethasone-induced; measured here: cell count per field; at 20 µM
row,SMILES,z-score
1,Cn1c(Cl)cnc1C1CC(=O)c2cc(Cl)ccc2O1 (stereo not given),-0.475
2,Cc1ccc(Cn2cc(/C=N/Nc3ccc([N+](=O)[O-])cn3)c3ccccc32)cc1,0.528
3,CNC(=O)c1nnsc1S(=O)c1ccc(Cl)cc1 (stereo not given),-0.466
4,O=C1CN(C(=O)Cn2ncc(Cl)c(Cl)c2=O)c2ccccc2N1,0.0476
5,COc1ccc(CNC(=O)Cn2nnc3ccccc3c2=O)cc1,-0.0452
6,Cc1ccc(NC(=O)CCl)cc1S(=O)(=O)N1CCCCCC1,-0.271
7,O=C(Nc1ccc(N2CCOCC2)c(Cl)c1)c1ccc([N+](=O)[O-])o1,-0.424
8,Cc1cc(C)c(S(=O)(=O)ON2C(=O)c3ccccc3C2=O)cc1C,0.504
9,CC(C)(C)c1cnnn1-c1ccc(C(=O)CCl)cc1,0.249
10,N#C/C(=C\c1ccccc1)C(=O)N(c1ccccn1)C1CCCCC1,0.315
11,Cn1cc([N+](=O)[O-])c(C(=O)Nc2nc(-c3ccc(Cl)cc3)cs2)n1,0.803
12,Cn1nc([N+](=O)[O-])c(C(C#N)c2nc3ccccc3n2C)c(Cl)c1=O (stereo not given),-0.0548
13,COc1ccccc1-c1cc(C(F)(F)F)nc(S(=O)(=O)CCCC(=O)N2CCCCC2C)n1 (stereo not given),-1.26
14,C=CS(=O)(=O)c1sc(Cl)c(N2CCOCC2)c1[N+](=O)[O-],0.534
15,Cc1cc(N2CCCC2)c(F)cc1/C=C\[N+](=O)[O-],0.292
16,CCc1ccccc1NC(=O)CN(C)C(=O)Cn1ncc(Cl)c(Cl)c1=O,-0.558
17,O=C(CCl)c1ccc2c(c1)CCN2C(=O)C1CCCCC1,0.127
18,C=CCSc1nc2ccccc2n1C(=O)/C=C/c1cc(OC)c(OC)c(OC)c1,1.08
19,Cc1ccc(C(=O)/C=C/c2ccccc2)o1,-1
20,Cc1c(C#N)c(NC(=O)CCl)n(Cc2cccs2)c1C,0.268
21,COc1cc(/C=C2\SC(=O)NC2=O)ccc1Oc1ccc([N+](=O)[O-])cc1[N+](=O)[O-],0.279
22,O=C(Nc1ccccc1)C1=C(c2ccccc2)S(=O)(=O)CCS1(=O)=O,-4.99
23,Nc1nc2ccc(S(=O)(=O)N3CCCCC3)cc2s1,-0.213
24,O=C(/C(=C/c1ccc(Cl)cc1)c1nc2ccccc2[nH]1)c1cccs1,-0.103
25,O=C(Sc1ccccc1)c1cccc(Cn2cc(C(F)(F)F)ccc2=O)c1,0.845
26,C=CCn1c(C)cc(C(=O)Cn2ncc(Cl)c(Cl)c2=O)c1C,0.515
27,CS(=O)(=O)c1ccc(S(=O)CC(=O)OCc2ccccc2)c([N+](=O)[O-])c1 (stereo not given),-2.1
28,O=C(/C(=C/c1ccc(Cl)cc1)c1nc2ccccc2[nH]1)c1ccccc1,0.696
29,Cc1ccc(C(=O)NC(C#N)=C(Cl)Cl)cc1,0.103
30,O=C(/C=C/c1ccccn1)c1cc(Br)ccc1O,0.356

# From entry 24 to 25, copied from above:
row,SMILES,z-score
24,O=C(/C(=C/c1ccc(Cl)cc1)c1nc2ccccc2[nH]1)c1cccs1,-0.103
25,O=C(Sc1ccccc1)c1cccc(Cn2cc(C(F)(F)F)ccc2=O)c1,0.845

# — PubChem BioAssay AID463116 (University of Pittsburgh Molecular Library Screening Center, 2010)
